Test results: the supplement of paper PMC11438910
The list shows a part of the results. Only a few entries rise above the background.

What was measured:
Assay in all cases: fluorescence intensity of antibody binding to polysaccharide-coupled beads; higher = stronger binding
[1] = target: pneumococcal polysaccharide Pn31
[2] = target: pneumococcal polysaccharide Pn32A
[3] = target: pneumococcal polysaccharide Pn32F
[4] = target: pneumococcal polysaccharide Pn33A
[5] = target: pneumococcal polysaccharide Pn33B
[6] = target: pneumococcal polysaccharide Pn33C
[7] = target: pneumococcal polysaccharide Pn33D
[8] = target: pneumococcal polysaccharide Pn33F
[9] = target: pneumococcal polysaccharide Pn34
[10] = target: pneumococcal polysaccharide Pn35A
[11] = target: pneumococcal polysaccharide Pn35B
[12] = target: pneumococcal polysaccharide Pn35C
[13] = target: pneumococcal polysaccharide Pn35F
[14] = target: pneumococcal polysaccharide Pn36
[15] = target: pneumococcal polysaccharide Pn37
[16] = target: pneumococcal polysaccharide Pn38
[17] = target: pneumococcal polysaccharide Pn39
[18] = target: pneumococcal polysaccharide Pn4
[19] = target: pneumococcal polysaccharide Pn40
[20] = target: pneumococcal polysaccharide Pn41A
[21] = target: pneumococcal polysaccharide Pn41F
[22] = target: pneumococcal polysaccharide Pn42
[23] = target: pneumococcal polysaccharide Pn43
[24] = antibody concentration 81.7561 ng/mL
[25] = antibody concentration 437.17 ng/mL
[26] = antibody concentration 2337.65 ng/mL
[27] = antibody concentration 12500 ng/mL
[28] = antibody concentration 0.1 ng/mL
[29] = antibody concentration 0.534724 ng/mL
[30] = antibody concentration 2.8593 ng/mL
[31] = antibody concentration 15.2894 ng/mL

B1: 3S41.3 (protein)
chain 1: EVQLVESGGGLVQPGGSLRLSCATSGFTFSNYWMYWFRQAPGKGLEWVSTISGSSSNTYYPDSVKGRFTISRDNAKNTLYLQINSLRAEDTAVYYCARRHDHSSGWAFDYWGQGVLVTVSS
chain 2: EIVMTQSPATLSLSPGERATLSCRASQSVGSNLAWYQQKPGQAPKLLIYDASSRATGIPDRFSGSGSGTDFTLTVSSLEPEDVGVYYCQQYNNWKTFGQGTKVEIK
fluorescence intensity [1, 24]: 16.5 MFI
fluorescence intensity [1, 25]: 67 MFI
fluorescence intensity [1, 26]: 492 MFI
fluorescence intensity [1, 27]: 1100 MFI
fluorescence intensity [2, 28]: 16.5 MFI
fluorescence intensity [2, 29]: 14.5 MFI
fluorescence intensity [2, 30]: 17.5 MFI
fluorescence intensity [2, 31]: 16.5 MFI
fluorescence intensity [2, 24]: 18 MFI
fluorescence intensity [2, 25]: 26.8 MFI
fluorescence intensity [2, 26]: 92.8 MFI
fluorescence intensity [2, 27]: 248 MFI
fluorescence intensity [3, 28]: 25 MFI
fluorescence intensity [3, 29]: 27 MFI
fluorescence intensity [3, 30]: 26.5 MFI
fluorescence intensity [3, 31]: 29.2 MFI
fluorescence intensity [3, 24]: 33 MFI
fluorescence intensity [3, 25]: 47 MFI
fluorescence intensity [3, 26]: 80.5 MFI
fluorescence intensity [3, 27]: 176 MFI
fluorescence intensity [4, 28]: 16.5 MFI
fluorescence intensity [4, 29]: 17.5 MFI
fluorescence intensity [4, 30]: 17.5 MFI
fluorescence intensity [4, 31]: 18 MFI
fluorescence intensity [4, 24]: 22 MFI
fluorescence intensity [4, 25]: 92 MFI
fluorescence intensity [4, 26]: 946 MFI
fluorescence intensity [4, 27]: 2380 MFI
fluorescence intensity [5, 28]: 17.5 MFI
fluorescence intensity [5, 29]: 17 MFI
fluorescence intensity [5, 30]: 16.5 MFI
fluorescence intensity [5, 31]: 18 MFI
fluorescence intensity [5, 24]: 17 MFI
fluorescence intensity [5, 25]: 19 MFI
fluorescence intensity [5, 26]: 24.5 MFI
fluorescence intensity [5, 27]: 57.5 MFI
fluorescence intensity [6, 28]: 19.5 MFI
fluorescence intensity [6, 29]: 18.2 MFI
fluorescence intensity [6, 30]: 18.5 MFI
fluorescence intensity [6, 31]: 18 MFI
fluorescence intensity [6, 24]: 18.5 MFI
fluorescence intensity [6, 25]: 24 MFI
fluorescence intensity [6, 26]: 84.5 MFI
fluorescence intensity [6, 27]: 259 MFI
fluorescence intensity [7, 28]: 17 MFI
fluorescence intensity [7, 29]: 15.5 MFI
fluorescence intensity [7, 30]: 15.5 MFI
fluorescence intensity [7, 31]: 14.5 MFI
fluorescence intensity [7, 24]: 14 MFI
fluorescence intensity [7, 25]: 17 MFI
fluorescence intensity [7, 26]: 33.2 MFI
fluorescence intensity [7, 27]: 95.2 MFI
fluorescence intensity [8, 28]: 11 MFI
fluorescence intensity [8, 29]: 13 MFI
fluorescence intensity [8, 30]: 13 MFI
fluorescence intensity [8, 31]: 12.5 MFI
fluorescence intensity [8, 24]: 17 MFI
fluorescence intensity [8, 25]: 91 MFI
fluorescence intensity [8, 26]: 921 MFI
fluorescence intensity [8, 27]: 1820 MFI
fluorescence intensity [9, 28]: 13 MFI
fluorescence intensity [9, 29]: 13 MFI
fluorescence intensity [9, 30]: 14.5 MFI
fluorescence intensity [9, 31]: 12.8 MFI
fluorescence intensity [9, 24]: 15 MFI
fluorescence intensity [9, 25]: 16 MFI
fluorescence intensity [9, 26]: 30.2 MFI
fluorescence intensity [9, 27]: 70.8 MFI
fluorescence intensity [10, 28]: 16.2 MFI
fluorescence intensity [10, 29]: 16.2 MFI
fluorescence intensity [10, 30]: 16 MFI
fluorescence intensity [10, 31]: 15.8 MFI
fluorescence intensity [10, 24]: 16.2 MFI
fluorescence intensity [10, 25]: 26.5 MFI
fluorescence intensity [10, 26]: 171 MFI
fluorescence intensity [10, 27]: 623 MFI
fluorescence intensity [11, 28]: 16.8 MFI
fluorescence intensity [11, 29]: 17.2 MFI
fluorescence intensity [11, 30]: 17 MFI
fluorescence intensity [11, 31]: 17 MFI
fluorescence intensity [11, 24]: 17.5 MFI
fluorescence intensity [11, 25]: 24 MFI
fluorescence intensity [11, 26]: 108 MFI
fluorescence intensity [11, 27]: 417 MFI
fluorescence intensity [12, 28]: 19.5 MFI
fluorescence intensity [12, 29]: 19 MFI
fluorescence intensity [12, 30]: 18.5 MFI
fluorescence intensity [12, 31]: 21.5 MFI
fluorescence intensity [12, 24]: 18.5 MFI
fluorescence intensity [12, 25]: 19.5 MFI
fluorescence intensity [12, 26]: 25.8 MFI
fluorescence intensity [12, 27]: 54.5 MFI
fluorescence intensity [13, 28]: 20 MFI
fluorescence intensity [13, 29]: 17 MFI
fluorescence intensity [13, 30]: 18 MFI
fluorescence intensity [13, 31]: 24.5 MFI
fluorescence intensity [13, 24]: 14.8 MFI
fluorescence intensity [13, 25]: 19.2 MFI
fluorescence intensity [13, 26]: 25 MFI
fluorescence intensity [13, 27]: 56 MFI
fluorescence intensity [14, 28]: 14.5 MFI
fluorescence intensity [14, 29]: 14.5 MFI
fluorescence intensity [14, 30]: 15.5 MFI
fluorescence intensity [14, 31]: 16 MFI
fluorescence intensity [14, 24]: 17.5 MFI
fluorescence intensity [14, 25]: 53.5 MFI
fluorescence intensity [14, 26]: 360 MFI
fluorescence intensity [14, 27]: 805 MFI
fluorescence intensity [15, 28]: 24 MFI
fluorescence intensity [15, 29]: 24.5 MFI
fluorescence intensity [15, 30]: 24.5 MFI
fluorescence intensity [15, 31]: 27 MFI
fluorescence intensity [15, 24]: 31.5 MFI
fluorescence intensity [15, 25]: 151 MFI
fluorescence intensity [15, 26]: 1170 MFI
fluorescence intensity [15, 27]: 2060 MFI
fluorescence intensity [16, 28]: 24.5 MFI
fluorescence intensity [16, 29]: 25.2 MFI
fluorescence intensity [16, 30]: 24 MFI
fluorescence intensity [16, 31]: 24.5 MFI
fluorescence intensity [16, 24]: 25 MFI
fluorescence intensity [16, 25]: 29 MFI
fluorescence intensity [16, 26]: 42.2 MFI
fluorescence intensity [16, 27]: 130 MFI
fluorescence intensity [17, 28]: 18.5 MFI
fluorescence intensity [17, 29]: 17 MFI
fluorescence intensity [17, 30]: 18.2 MFI
fluorescence intensity [17, 31]: 19 MFI
fluorescence intensity [17, 24]: 19 MFI
fluorescence intensity [17, 25]: 24 MFI
fluorescence intensity [17, 26]: 101 MFI
fluorescence intensity [17, 27]: 394 MFI
fluorescence intensity [18, 28]: 17.8 MFI
fluorescence intensity [18, 29]: 16.5 MFI
fluorescence intensity [18, 30]: 18.5 MFI
fluorescence intensity [18, 31]: 17.8 MFI
fluorescence intensity [18, 24]: 22.8 MFI
fluorescence intensity [18, 25]: 28.5 MFI
fluorescence intensity [18, 26]: 47.5 MFI
fluorescence intensity [18, 27]: 87.5 MFI
fluorescence intensity [19, 28]: 16.2 MFI
fluorescence intensity [19, 29]: 16 MFI
fluorescence intensity [19, 30]: 15.2 MFI
fluorescence intensity [19, 31]: 16 MFI
fluorescence intensity [19, 24]: 19 MFI
fluorescence intensity [19, 25]: 63.5 MFI
fluorescence intensity [19, 26]: 530 MFI
fluorescence intensity [19, 27]: 1140 MFI
fluorescence intensity [20, 28]: 24 MFI
fluorescence intensity [20, 29]: 21.2 MFI
fluorescence intensity [20, 30]: 22.5 MFI
fluorescence intensity [20, 31]: 21.5 MFI
fluorescence intensity [20, 24]: 24 MFI
fluorescence intensity [20, 25]: 28 MFI
fluorescence intensity [20, 26]: 32.2 MFI
fluorescence intensity [20, 27]: 50.5 MFI
fluorescence intensity [21, 28]: 12.2 MFI
fluorescence intensity [21, 29]: 12 MFI
fluorescence intensity [21, 30]: 11.5 MFI
fluorescence intensity [21, 31]: 12 MFI
fluorescence intensity [21, 24]: 14.5 MFI
fluorescence intensity [21, 25]: 17.5 MFI
fluorescence intensity [21, 26]: 38.5 MFI
fluorescence intensity [21, 27]: 80.5 MFI
fluorescence intensity [22, 28]: 11 MFI
fluorescence intensity [22, 29]: 12 MFI
fluorescence intensity [22, 30]: 11 MFI
fluorescence intensity [22, 31]: 12 MFI
fluorescence intensity [22, 24]: 12.5 MFI
fluorescence intensity [22, 25]: 26 MFI
fluorescence intensity [22, 26]: 179 MFI
fluorescence intensity [22, 27]: 387 MFI
fluorescence intensity [23, 28]: 13.5 MFI
fluorescence intensity [23, 29]: 15 MFI
fluorescence intensity [23, 30]: 15.2 MFI
fluorescence intensity [23, 31]: 16.5 MFI
fluorescence intensity [23, 24]: 21 MFI
fluorescence intensity [23, 25]: 113 MFI
fluorescence intensity [23, 26]: 1000 MFI
fluorescence intensity [23, 27]: 1970 MFI
